Results as given in doi:10.1101/317354.
No constants are given. Whether binding was seen depends on the method and setting. Binding seen in cells or lysates may run through a third protein. Some results given as binding are weak or reduced against the parent protein; the word gives no strength.

Sequences of proteins named here, by UniProt entry; tags and fusion partners are left off. A change or cut given only in a name is not applied to a line headed by its entry. A line that says so, or that is headed by a name, gives the form on record, which may keep a tag or linker. Residues count along the entry.
UniProt O60264: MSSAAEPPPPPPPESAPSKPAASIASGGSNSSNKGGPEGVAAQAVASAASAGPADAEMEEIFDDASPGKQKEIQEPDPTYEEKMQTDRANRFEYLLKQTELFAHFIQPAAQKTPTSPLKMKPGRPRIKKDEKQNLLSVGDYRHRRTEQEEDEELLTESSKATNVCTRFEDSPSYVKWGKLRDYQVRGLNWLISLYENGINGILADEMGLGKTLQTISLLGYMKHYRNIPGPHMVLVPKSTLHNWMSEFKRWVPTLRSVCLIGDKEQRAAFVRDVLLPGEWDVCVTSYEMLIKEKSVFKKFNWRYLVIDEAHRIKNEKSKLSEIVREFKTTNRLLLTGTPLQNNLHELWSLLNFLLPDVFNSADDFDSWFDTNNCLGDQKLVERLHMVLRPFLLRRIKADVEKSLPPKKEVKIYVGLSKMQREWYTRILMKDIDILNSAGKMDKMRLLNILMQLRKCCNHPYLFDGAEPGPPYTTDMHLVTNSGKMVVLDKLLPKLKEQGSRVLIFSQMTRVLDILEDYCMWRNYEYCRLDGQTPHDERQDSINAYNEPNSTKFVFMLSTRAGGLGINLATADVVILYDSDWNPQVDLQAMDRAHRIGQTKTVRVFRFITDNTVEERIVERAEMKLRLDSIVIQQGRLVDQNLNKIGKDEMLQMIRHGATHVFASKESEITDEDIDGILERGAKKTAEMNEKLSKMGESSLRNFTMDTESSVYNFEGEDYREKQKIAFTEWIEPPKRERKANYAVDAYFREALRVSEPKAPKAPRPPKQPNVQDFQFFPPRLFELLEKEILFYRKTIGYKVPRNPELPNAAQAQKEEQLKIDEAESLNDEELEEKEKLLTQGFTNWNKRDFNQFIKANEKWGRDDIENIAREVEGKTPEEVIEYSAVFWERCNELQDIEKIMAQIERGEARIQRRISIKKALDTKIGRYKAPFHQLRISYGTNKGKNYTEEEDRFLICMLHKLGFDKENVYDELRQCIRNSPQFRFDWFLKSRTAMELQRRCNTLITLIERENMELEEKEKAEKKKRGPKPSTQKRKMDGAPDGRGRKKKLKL
UniProt Q9ULG1: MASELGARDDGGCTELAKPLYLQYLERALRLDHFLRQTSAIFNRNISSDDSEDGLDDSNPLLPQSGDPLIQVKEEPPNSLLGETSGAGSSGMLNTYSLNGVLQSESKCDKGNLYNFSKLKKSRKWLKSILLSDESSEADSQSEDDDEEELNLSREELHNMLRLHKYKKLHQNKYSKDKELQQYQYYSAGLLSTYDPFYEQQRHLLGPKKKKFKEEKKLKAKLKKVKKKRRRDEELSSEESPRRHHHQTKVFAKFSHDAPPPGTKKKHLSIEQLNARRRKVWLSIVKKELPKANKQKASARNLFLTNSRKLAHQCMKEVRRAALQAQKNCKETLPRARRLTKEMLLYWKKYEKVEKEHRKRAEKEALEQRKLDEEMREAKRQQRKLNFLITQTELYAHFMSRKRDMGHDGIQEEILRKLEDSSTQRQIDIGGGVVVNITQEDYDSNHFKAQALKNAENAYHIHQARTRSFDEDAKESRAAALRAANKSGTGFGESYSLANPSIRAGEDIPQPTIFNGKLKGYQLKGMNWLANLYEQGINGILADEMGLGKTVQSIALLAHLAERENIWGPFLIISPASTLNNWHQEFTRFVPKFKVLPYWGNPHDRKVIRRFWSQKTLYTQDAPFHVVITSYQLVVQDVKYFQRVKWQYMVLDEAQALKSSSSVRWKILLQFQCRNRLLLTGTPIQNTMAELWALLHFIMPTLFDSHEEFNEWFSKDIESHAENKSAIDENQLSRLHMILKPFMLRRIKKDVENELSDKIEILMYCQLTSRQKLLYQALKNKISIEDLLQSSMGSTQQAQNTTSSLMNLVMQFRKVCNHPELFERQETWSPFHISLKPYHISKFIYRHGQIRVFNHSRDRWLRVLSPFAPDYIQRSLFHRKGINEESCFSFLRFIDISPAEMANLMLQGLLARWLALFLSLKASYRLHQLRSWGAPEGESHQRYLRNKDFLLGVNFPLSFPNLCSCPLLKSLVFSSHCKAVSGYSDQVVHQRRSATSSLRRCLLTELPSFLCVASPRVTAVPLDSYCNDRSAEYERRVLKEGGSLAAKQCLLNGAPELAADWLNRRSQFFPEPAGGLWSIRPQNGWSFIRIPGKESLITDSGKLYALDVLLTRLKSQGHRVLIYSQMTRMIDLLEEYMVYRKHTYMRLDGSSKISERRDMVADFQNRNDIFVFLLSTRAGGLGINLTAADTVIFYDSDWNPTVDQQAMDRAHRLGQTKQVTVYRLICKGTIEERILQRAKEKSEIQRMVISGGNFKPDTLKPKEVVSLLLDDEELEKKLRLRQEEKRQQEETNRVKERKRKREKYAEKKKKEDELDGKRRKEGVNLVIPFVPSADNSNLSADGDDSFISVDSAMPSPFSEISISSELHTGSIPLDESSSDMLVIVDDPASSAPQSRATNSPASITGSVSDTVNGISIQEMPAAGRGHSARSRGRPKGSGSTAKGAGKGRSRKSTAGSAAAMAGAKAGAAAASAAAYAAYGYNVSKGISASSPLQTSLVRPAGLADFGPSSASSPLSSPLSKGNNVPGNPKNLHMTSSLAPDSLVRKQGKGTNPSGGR
UniProt P03206: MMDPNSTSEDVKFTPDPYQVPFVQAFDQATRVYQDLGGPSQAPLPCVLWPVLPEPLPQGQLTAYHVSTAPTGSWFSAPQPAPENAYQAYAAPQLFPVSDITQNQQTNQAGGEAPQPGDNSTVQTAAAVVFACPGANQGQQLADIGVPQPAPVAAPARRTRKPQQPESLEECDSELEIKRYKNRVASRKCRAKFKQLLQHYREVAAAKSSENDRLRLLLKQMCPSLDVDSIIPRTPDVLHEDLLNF
Strep-tagged BZLF1 bZIP domain (aa175-236): residues 175-236 of P03206
UniProt Q14839: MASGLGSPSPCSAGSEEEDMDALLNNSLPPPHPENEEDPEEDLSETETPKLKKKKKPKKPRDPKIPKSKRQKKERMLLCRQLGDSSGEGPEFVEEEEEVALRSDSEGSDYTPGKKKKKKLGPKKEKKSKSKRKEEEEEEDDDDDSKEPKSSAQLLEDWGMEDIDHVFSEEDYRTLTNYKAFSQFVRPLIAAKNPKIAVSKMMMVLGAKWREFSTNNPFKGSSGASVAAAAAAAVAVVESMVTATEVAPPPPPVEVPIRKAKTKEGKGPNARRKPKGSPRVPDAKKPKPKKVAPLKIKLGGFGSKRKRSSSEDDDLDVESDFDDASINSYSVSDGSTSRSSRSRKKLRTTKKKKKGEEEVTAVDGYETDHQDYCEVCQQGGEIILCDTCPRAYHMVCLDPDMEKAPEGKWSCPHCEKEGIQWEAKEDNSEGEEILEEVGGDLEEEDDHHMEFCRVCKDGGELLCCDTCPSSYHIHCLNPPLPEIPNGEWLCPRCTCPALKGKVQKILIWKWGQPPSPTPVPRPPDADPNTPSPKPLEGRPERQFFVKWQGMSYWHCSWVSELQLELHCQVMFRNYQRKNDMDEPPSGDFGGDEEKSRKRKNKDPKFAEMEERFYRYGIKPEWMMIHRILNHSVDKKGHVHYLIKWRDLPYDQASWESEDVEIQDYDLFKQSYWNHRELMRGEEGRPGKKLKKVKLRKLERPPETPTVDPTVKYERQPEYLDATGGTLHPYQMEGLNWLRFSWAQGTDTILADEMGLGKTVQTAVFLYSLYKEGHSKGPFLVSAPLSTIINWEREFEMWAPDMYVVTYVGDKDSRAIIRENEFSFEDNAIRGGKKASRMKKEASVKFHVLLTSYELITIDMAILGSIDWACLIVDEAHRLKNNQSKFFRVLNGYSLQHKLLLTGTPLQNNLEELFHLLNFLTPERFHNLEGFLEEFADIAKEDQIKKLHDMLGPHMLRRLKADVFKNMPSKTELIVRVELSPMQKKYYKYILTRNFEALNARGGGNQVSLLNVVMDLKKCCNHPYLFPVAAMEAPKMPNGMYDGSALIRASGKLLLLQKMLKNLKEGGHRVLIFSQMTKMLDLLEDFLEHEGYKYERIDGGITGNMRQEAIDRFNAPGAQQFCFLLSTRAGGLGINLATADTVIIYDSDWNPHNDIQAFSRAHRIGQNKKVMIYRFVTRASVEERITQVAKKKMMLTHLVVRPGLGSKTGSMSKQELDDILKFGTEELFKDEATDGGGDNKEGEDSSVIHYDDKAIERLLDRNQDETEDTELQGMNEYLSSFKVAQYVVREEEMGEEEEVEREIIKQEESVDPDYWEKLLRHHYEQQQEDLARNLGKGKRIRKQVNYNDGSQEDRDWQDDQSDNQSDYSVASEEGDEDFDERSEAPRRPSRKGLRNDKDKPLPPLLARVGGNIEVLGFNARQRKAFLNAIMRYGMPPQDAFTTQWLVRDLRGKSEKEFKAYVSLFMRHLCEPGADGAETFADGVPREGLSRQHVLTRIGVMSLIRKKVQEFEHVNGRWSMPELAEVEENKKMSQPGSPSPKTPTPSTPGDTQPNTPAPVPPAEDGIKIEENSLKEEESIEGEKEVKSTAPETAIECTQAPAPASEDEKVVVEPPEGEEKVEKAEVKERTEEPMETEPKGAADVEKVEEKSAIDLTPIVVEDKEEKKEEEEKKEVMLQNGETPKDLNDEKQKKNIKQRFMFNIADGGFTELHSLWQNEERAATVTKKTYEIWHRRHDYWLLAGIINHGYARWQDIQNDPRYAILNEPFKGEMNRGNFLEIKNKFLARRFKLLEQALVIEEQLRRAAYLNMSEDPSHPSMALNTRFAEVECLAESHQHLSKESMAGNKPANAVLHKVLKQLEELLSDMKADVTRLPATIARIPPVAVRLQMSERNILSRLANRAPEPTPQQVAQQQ

Columns and labels:
Assay in all cases: co-IP
[1] = target: GFP-tagged chromatin remodeler ATPase subunit SNF2h (UniProt O60264)
[2] = target: GFP-tagged chromatin remodeler ATPase subunit INO80 (human) (UniProt Q9ULG1)
[3] = target: Strep-tagged BZLF1 full-length protein (aa1-245) (Epstein-Barr virus) (UniProt P03206)
[4] = target: Strep-tagged BZLF1 bZIP domain (aa175-236) (Epstein-Barr virus) (UniProt P03206)

Substance | binding [1] | binding [3] | other results
BZLF1 aa175-236 with FLAG- and tandem Strep-tag (HEK293) (from UniProt P03206 175-236) (domain or fragment) | binds |  | 
BZLF1 aa1-245 with FLAG- and tandem Strep-tag (HEK293) (from UniProt P03206 1-245) | binds |  | binding [2]: binds
CHD4 (endogenous, Raji) (from UniProt Q14839 1-1912) |  | no binding | 
BZLF1 aa149-245 with FLAG- and tandem Strep-tag (HEK293) (from UniProt P03206 149-245) (domain or fragment) | binds |  | 
BZLF1 aa1-236 with FLAG- and tandem Strep-tag (HEK293) (from UniProt P03206 1-236) (domain or fragment) | binds |  | 
SNF2h, catalytic ATPase subunit of ISWI family remodelers (endogenous, Raji) (from UniProt O60264 1-1052) |  | binds | binding [4]: binds
